{"source": "PubChem BioAssay AID1259282 | Sanger Institute – 2017", "test": "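Kinase knock-downs that work with targeted colorectal cancer drugs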 (primary screen)", "system": "DIFI human colorectal cancer cell line", "reagent": "siRNA pool against human genes", "challenge": "anchor drug at a mild dose (BYL719 1 µM, cetuximab 5 µg/ml, trametinib 10 nM) or DMSO vehicle; exposure time not given", "measured": "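Viability relative to non-targeting pool wells, replicate mean, in DMSO or low-dose BYL719, cetuximab or trametinib; robust z-score without drug; synergy score per drug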", "scale": "robust z-score, knock-down alone: higher = more viable cells than typical knock-down; viability, knock-down alone: higher = more viable cells", "units": "viability, knock-down alone in fraction of control", "call rule": "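a knock-down is called essential if its DMSO robust z-score is under -3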", "meaning of the calls": "active = essential (knock-down alone, z below -3); inactive = not essential", "note": "Shown is an unselected part of 794 deposited reagents. 11 of all reagents (1.4%) count as active. 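Calls flag knock-downs that lower viability without drug; drug synergy appears only in the synergy scores; exposure time not stated.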 Reagents against one gene are numbered here. No viability above 1 is reported: the scale is capped. Not all columns of the deposit are shown. Reagent sequences are not shown. Not given: the amount of reagent, the time to read-out."}
{"gene": "SRPK1", "reagent": 1, "robust z-score, knock-down alone": 0.715, "viability, knock-down alone": 1, "activity call": "inactive"}
{"gene": "TBCK", "reagent": 1, "robust z-score, knock-down alone": 0.715, "viability, knock-down alone": 1, "activity call": "inactive"}
{"gene": "PRKG1", "reagent": 1, "robust z-score, knock-down alone": -0.713, "viability, knock-down alone": 0.793, "activity call": "inactive"}
{"gene": "CHKB", "reagent": 1, "robust z-score, knock-down alone": 0.715, "viability, knock-down alone": 1, "activity call": "inactive"}
{"gene": "NEK8", "reagent": 1, "robust z-score, knock-down alone": -0.597, "viability, knock-down alone": 0.809, "activity call": "inactive"}
{"gene": "SIK1", "reagent": 1, "robust z-score, knock-down alone": 0.555, "viability, knock-down alone": 0.977, "activity call": "inactive"}
{"gene": "BCR", "reagent": 1, "robust z-score, knock-down alone": -0.363, "viability, knock-down alone": 0.843, "activity call": "inactive"}
{"gene": "LCK", "reagent": 1, "robust z-score, knock-down alone": 0.715, "viability, knock-down alone": 1, "activity call": "inactive"}
{"gene": "WHR1", "reagent": 1, "robust z-score, knock-down alone": 0.715, "viability, knock-down alone": 1, "activity call": "inactive"}
{"gene": "TGFBR2", "reagent": 1, "robust z-score, knock-down alone": -1.68, "viability, knock-down alone": 0.652, "activity call": "inactive"}
{"gene": "ULK1", "reagent": 1, "robust z-score, knock-down alone": -0.169, "viability, knock-down alone": 0.872, "activity call": "inactive"}
{"gene": "LMTK2", "reagent": 1, "robust z-score, knock-down alone": 0.121, "viability, knock-down alone": 0.914, "activity call": "inactive"}
{"gene": "ILK", "reagent": 1, "robust z-score, knock-down alone": 0.715, "viability, knock-down alone": 1, "activity call": "inactive"}
{"gene": "ILK", "reagent": 2, "robust z-score, knock-down alone": -1.16, "viability, knock-down alone": 0.727, "activity call": "inactive"}
{"gene": "LRRK1", "reagent": 1, "robust z-score, knock-down alone": 0.715, "viability, knock-down alone": 1, "activity call": "inactive"}
{"gene": "RELA", "reagent": 1, "robust z-score, knock-down alone": 0.715, "viability, knock-down alone": 1, "activity call": "inactive"}
{"gene": "CTNNB1", "reagent": 1, "robust z-score, knock-down alone": 0.715, "viability, knock-down alone": 1, "activity call": "inactive"}
{"gene": "DCLK3", "reagent": 1, "robust z-score, knock-down alone": 0.715, "viability, knock-down alone": 1, "activity call": "inactive"}
{"gene": "STRADA", "reagent": 1, "robust z-score, knock-down alone": 0.715, "viability, knock-down alone": 1, "activity call": "inactive"}
{"gene": "CDK5R1", "reagent": 1, "robust z-score, knock-down alone": 0.715, "viability, knock-down alone": 1, "activity call": "inactive"}
{"gene": "IRAK2", "reagent": 1, "robust z-score, knock-down alone": 0.715, "viability, knock-down alone": 1, "activity call": "inactive"}
{"gene": "NME7", "reagent": 1, "robust z-score, knock-down alone": 0.715, "viability, knock-down alone": 1, "activity call": "inactive"}
{"gene": "PIM3", "reagent": 1, "robust z-score, knock-down alone": 0.686, "viability, knock-down alone": 0.996, "activity call": "inactive"}
{"gene": "CHUK", "reagent": 1, "robust z-score, knock-down alone": 0.715, "viability, knock-down alone": 1, "activity call": "inactive"}
{"gene": "AKT3", "reagent": 1, "robust z-score, knock-down alone": 0.133, "viability, knock-down alone": 0.915, "activity call": "inactive"}
{"gene": "PHKA2", "reagent": 1, "robust z-score, knock-down alone": -0.97, "viability, knock-down alone": 0.755, "activity call": "inactive"}
{"gene": "TSSK3", "reagent": 1, "robust z-score, knock-down alone": 0.65, "viability, knock-down alone": 0.991, "activity call": "inactive"}
{"gene": "STK17A", "reagent": 1, "robust z-score, knock-down alone": -1.85, "viability, knock-down alone": 0.628, "activity call": "inactive"}
{"gene": "FGFR2", "reagent": 1, "robust z-score, knock-down alone": 0.715, "viability, knock-down alone": 1, "activity call": "inactive"}
{"gene": "CKMT2", "reagent": 1, "robust z-score, knock-down alone": 0.202, "viability, knock-down alone": 0.926, "activity call": "inactive"}
{"gene": "DGKA", "reagent": 1, "robust z-score, knock-down alone": -1.56, "viability, knock-down alone": 0.669, "activity call": "inactive"}
{"gene": "BRD3", "reagent": 1, "robust z-score, knock-down alone": 0.715, "viability, knock-down alone": 1, "activity call": "inactive"}
{"gene": "CDKN2C", "reagent": 1, "robust z-score, knock-down alone": -1.38, "viability, knock-down alone": 0.696, "activity call": "inactive"}
{"gene": "RYK", "reagent": 1, "robust z-score, knock-down alone": 0.715, "viability, knock-down alone": 1, "activity call": "inactive"}
{"gene": "CHD9", "reagent": 1, "robust z-score, knock-down alone": -0.423, "viability, knock-down alone": 0.835, "activity call": "inactive"}
{"gene": "PIP4K2B", "reagent": 1, "robust z-score, knock-down alone": 0.393, "viability, knock-down alone": 0.953, "activity call": "inactive"}
